Data reported in article PMC8384837.
Changes are numbered by the printed parent chain. The list shows a part of the results. For some of these results: At the low end of the ranking the order means little.

What was measured:
Conditions in all cases: yeast three-hybrid, YBZ-1, SC-Leu-His + 0.5 mM 3-AT, 4 days
[1] = molecular target: T1, PUM1 PUF domain R7-RQL S1079R + N1080Q + E1083L (Homo sapiens) (UniProt Q14671)
T1 sequence: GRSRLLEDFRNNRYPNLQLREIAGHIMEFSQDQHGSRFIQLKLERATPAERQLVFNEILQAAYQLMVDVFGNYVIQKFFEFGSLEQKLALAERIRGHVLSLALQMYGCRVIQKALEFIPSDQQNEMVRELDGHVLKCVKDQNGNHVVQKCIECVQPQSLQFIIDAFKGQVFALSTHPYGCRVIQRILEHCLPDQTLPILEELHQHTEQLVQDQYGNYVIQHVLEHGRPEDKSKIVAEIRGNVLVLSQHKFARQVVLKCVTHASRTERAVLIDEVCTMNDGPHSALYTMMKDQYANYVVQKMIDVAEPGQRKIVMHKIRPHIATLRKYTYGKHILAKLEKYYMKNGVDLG

[2] = molecular target: T2, PUM1 PUF domain R7-RSW S1079R + N1080S + E1083W (Homo sapiens) (UniProt Q14671)
T2 sequence: T1 sequence with Q253S, L256W

[3] = molecular target: T3, PUM1 PUF domain R7-RTC S1079R + N1080T + E1083C (Homo sapiens) (UniProt Q14671)
T3 sequence: T1 sequence with Q253T, L256C

[4] = molecular target: T4, PUM1 PUF domain R7-RTL S1079R + N1080T + E1083L (Homo sapiens) (UniProt Q14671)
T4 sequence: T1 sequence with Q253T

[5] = molecular target: T5, PUM1 PUF domain R7-RVC S1079R + N1080V + E1083C (Homo sapiens) (UniProt Q14671)
T5 sequence: T1 sequence with Q253V, L256C

[6] = molecular target: T6, PUM1 PUF domain R7-RVI S1079R + N1080V + E1083I (Homo sapiens) (UniProt Q14671)
T6 sequence: T1 sequence with Q253V, L256I

[7] = molecular target: T7, PUM1 PUF domain R7-RVL S1079R + N1080V + E1083L (Homo sapiens) (UniProt Q14671)
T7 sequence: T1 sequence with Q253V

[8] = molecular target: T8, PUM1 PUF domain R7-RVM S1079R + N1080V + E1083M (Homo sapiens) (UniProt Q14671)
T8 sequence: T1 sequence with Q253V, L256M

[9] = molecular target: T9, PUM1 PUF domain R7-RVS S1079R + N1080V + E1083S (Homo sapiens) (UniProt Q14671)
T9 sequence: T1 sequence with Q253V, L256S

[10] = molecular target: T10, PUM1 PUF domain R7-RVT S1079R + N1080V + E1083T (Homo sapiens) (UniProt Q14671)
T10 sequence: T1 sequence with Q253V, L256T

[11] = molecular target: T11, PUM1 PUF domain R7-RVV S1079R + N1080V + E1083V (Homo sapiens) (UniProt Q14671)
T11 sequence: T1 sequence with Q253V, L256V

[12] = molecular target: T12, PUM1 PUF domain R7-SRP N1080R + E1083P (Homo sapiens) (UniProt Q14671)
T12 sequence: T1 sequence with R252S, Q253R, L256P

[13] = molecular target: T13, PUM1 PUF domain R7-TIV S1079T + N1080I + E1083V (UniProt Q14671)
T13 sequence: T1 sequence with R252T, Q253I, L256V

[14] = molecular target: T14, PUM1 PUF domain R7-TMG S1079T + N1080M + E1083G (Homo sapiens) (UniProt Q14671)
T14 sequence: T1 sequence with R252T, Q253M, L256G

[15] = molecular target: T15, PUM1 PUF domain R7-TPG S1079T + N1080P + E1083G (Homo sapiens) (UniProt Q14671)
T15 sequence: T1 sequence with R252T, Q253P, L256G

[16] = molecular target: T16, PUM1 PUF domain R7-TSV S1079T + N1080S + E1083V (UniProt Q14671)
T16 sequence: T1 sequence with R252T, Q253S, L256V

[17] = molecular target: T17, PUM1 PUF domain R7-TTG S1079T + N1080T + E1083G (UniProt Q14671)
T17 sequence: T1 sequence with R252T, Q253T, L256G

[18] = molecular target: T18, PUM1 PUF domain R7-TVA S1079T + N1080V + E1083A (UniProt Q14671)
T18 sequence: T1 sequence with R252T, Q253V, L256A

[19] = molecular target: T19, PUM1 PUF domain R7-TVG S1079T + N1080V + E1083G (UniProt Q14671)
T19 sequence: T1 sequence with R252T, Q253V, L256G

[20] = molecular target: T20, PUM1 PUF domain R7-TVR S1079T + N1080V + E1083R (Homo sapiens) (UniProt Q14671)
T20 sequence: T1 sequence with R252T, Q253V, L256R

[21] = molecular target: T21, PUM1 PUF domain R7-VER S1079V + N1080E + E1083R (UniProt Q14671)
T21 sequence: T1 sequence with R252V, Q253E, L256R

[22] = molecular target: T22, PUM1 PUF domain R7-VRR S1079V + N1080R + E1083R (Homo sapiens) (UniProt Q14671)
T22 sequence: T1 sequence with R252V, Q253R, L256R

[23] = molecular target: T23, PUM1 PUF domain R7-VSR S1079V + N1080S + E1083R (Homo sapiens) (UniProt Q14671)
T23 sequence: T1 sequence with R252V, Q253S, L256R

[24] = molecular target: T24, PUM1 PUF domain R7-VTR S1079V + N1080T + E1083R (UniProt Q14671)
T24 sequence: T1 sequence with R252V, Q253T, L256R

[25] = molecular target: T25, PUM1 PUF domain R7-VVK S1079V + N1080V + E1083K (UniProt Q14671)
T25 sequence: T1 sequence with R252V, Q253V, L256K

Work on “GGCUAGAACUAGUGGAUCCCCCGGCGCCCGGCGGCUCGAGCCCGGGUAAGUCUAAAUAGUCUGCAUGCCGCCGGGCGCCAUGCCUGCAGGUCGACUCUAGAAAACAUG” yielded a binding signal (log2 enrichment (interaction score)) [1] of -1.71, a binding signal (log2 enrichment (interaction score)) [2] of -1.24 and a binding signal (log2 enrichment (interaction score)) [3] of -0.59. The binding signal (log2 enrichment (interaction score)) [4] was -0.25, the binding signal (log2 enrichment (interaction score)) [5] was 0.03 and the binding signal (log2 enrichment (interaction score)) [6] was -0.43. It also gave a binding signal (log2 enrichment (interaction score)) [7] of -0.18, a binding signal (log2 enrichment (interaction score)) [8] of -0.48 and a binding signal (log2 enrichment (interaction score)) [9] of -0.28. The binding signal (log2 enrichment (interaction score)) [10] was 0.15, the binding signal (log2 enrichment (interaction score)) [11] was -0.71 and the binding signal (log2 enrichment (interaction score)) [12] was -2.68. For the same sequence, the binding signal (log2 enrichment (interaction score)) [13] was under -7.98, the binding signal (log2 enrichment (interaction score)) [14] was under -6.68 and the binding signal (log2 enrichment (interaction score)) [15] was -5.45. For the same sequence, the binding signal (log2 enrichment (interaction score)) [16] was under -8.59, the binding signal (log2 enrichment (interaction score)) [17] was under -8.74 and the binding signal (log2 enrichment (interaction score)) [18] was under -7.66. For the same sequence, the binding signal (log2 enrichment (interaction score)) [19] was under -7.26, the binding signal (log2 enrichment (interaction score)) [20] was -4.9 and the binding signal (log2 enrichment (interaction score)) [21] was under -8.21. It also gave a binding signal (log2 enrichment (interaction score)) [22] of -0.04, a binding signal (log2 enrichment (interaction score)) [23] of -5.62 and a binding signal (log2 enrichment (interaction score)) [24] of -6.53. It also gave a binding signal (log2 enrichment (interaction score)) [25] of under -9.55.
